PubChem BioAssay AID1259425 – University of Nebraska Medical Center – 2018

Screen: 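Seek colon cancer weak points whose silencing resembles KSR1 loss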 (primary screen)
Cells: HCT116 human colon cancer cells
Reagent: siRNA pool against human genes, 50 nM siRNA
Detection: 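After 50 nM siRNA pool, branched-DNA assay measures six marker transcripts per well, minus blank, normalised to the geometric mean of two housekeeping transcripts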
Scale: BNIP3L mRNA: higher = more BNIP3L transcript after knockdown
This is an unselected part of about 14,000 reagents. Further read-outs or replicates are left out here. Not stated in the record: the time to read-out.

| Target gene | BNIP3L mRNA, set 1 |
| --- | --- |
| INTS5 (integrator complex subunit 5) | 0.201 |
| VIPR1 (vasoactive intestinal peptide receptor 1) | 0.0827 |
| TAP1 (transporter 1, ATP binding cassette subfamily B member) | 0.0692 |
| TBX15 (T-box transcription factor 15) | 0.093 |
| BEND3 (BEN domain containing 3) | 0.102 |
| TPO (thyroid peroxidase) | 0.115 |
| OTP (orthopedia homeobox) | 0.166 |
| PORCN (porcupine O-acyltransferase) | 0.0581 |
| NT5C (5', 3'-nucleotidase, cytosolic) | 0.112 |
| FGA (fibrinogen alpha chain) | 0.0761 |
| LNX1 (ligand of numb-protein X 1) | 0.0366 |
| EFCC1 (EF-hand and coiled-coil domain containing 1) | 0.132 |
| GTF2E2 (general transcription factor IIE subunit 2) | 0.121 |
| LBHD1 (LBH domain containing 1) | 0.0717 |
| FILIP1 (filamin A interacting protein 1) | 0.0916 |
| CA12 (carbonic anhydrase 12) | 0.0919 |
| BFSP2 (beaded filament structural protein 2) | 0.0822 |
| HOXC13 (homeobox C13) | 0.0626 |
| DR1 (down-regulator of transcription 1) | 0.0748 |
| DHX8 (DEAH-box helicase 8) | 0.0916 |
| PSMC5 (proteasome 26S subunit, ATPase 5) | 0.441 |
| DCPH1 (damage control phosphatase 1) | 0.129 |
| PKIB (cAMP-dependent protein kinase inhibitor beta) | 0.289 |
| XPO1 (exportin 1) | 0.0536 |
| MGAT4A | 0.0744 |
| FZD7 (frizzled class receptor 7) | 0.51 |
| CEPT1 (choline/ethanolamine phosphotransferase 1) | 0.084 |
| CNOT12 (CCR4-NOT transcription complex subunit 12) | 0.176 |
| CUZD1 (CUB and zona pellucida like domains 1) | 0.183 |
| IRX6 (iroquois homeobox 6) | 0.256 |
| RBM4B (RNA binding motif protein 4B) | 0.273 |
| VIL1 (villin 1) | 0.0962 |
| GET3 (guided entry of tail-anchored proteins factor 3, ATPase) | 0.158 |
| ETHE1 (ETHE1 persulfide dioxygenase) | 0.0716 |
| GLUD1 (glutamate dehydrogenase 1) | 0.213 |
| NDUFB2 (NADH:ubiquinone oxidoreductase subunit B2) | 0.0797 |
| ARHGEF2 (Rho/Rac guanine nucleotide exchange factor 2) | 0.0913 |
| OPN4 (opsin 4) | 0.0601 |
| PNPLA2 (patatin like domain 2, triacylglycerol lipase) | 0.15 |
| CLGN (calmegin) | 0.239 |
| DENND1C (DENN domain containing 1C) | 0.128 |
| PNISR (PNN interacting serine and arginine rich protein) | 0.138 |
| TUBB1 (tubulin beta 1 class VI) | 0.0593 |
| TAF1B | 0.0995 |
| YME1L1 (YME1 like 1 ATPase) | 0.0485 |
| PPFIA2 (PPFI scaffold protein A2) | 0.0619 |
| CAST (calpastatin) | 0.121 |
| TMEM167B (transmembrane protein 167B) | 0.183 |
| COX6B1 (cytochrome c oxidase subunit 6B1) | 0.017 |
| ADAM11 (ADAM metallopeptidase domain 11) | 0.053 |

A stretch of the results above, as a working copy:
| Target gene | BNIP3L mRNA, set 1 |
| --- | --- |
| XPO1 (exportin 1) | 0.0536 |
| MGAT4A | 0.0744 |
| FZD7 (frizzled class receptor 7) | 0.51 |
| CEPT1 (choline/ethanolamine phosphotransferase 1) | 0.084 |
| CNOT12 (CCR4-NOT transcription complex subunit 12) | 0.176 |
| CUZD1 (CUB and zona pellucida like domains 1) | 0.183 |
| IRX6 (iroquois homeobox 6) | 0.256 |
